Source: PubChem BioAssay AID624297 (National Center for Advancing Translational Sciences (NCATS), 2012)
Hit rate of the full screen: of about 340,000 compounds, about 6,200 (1.8%) were called active. Inconclusive results, whose numbers are uncertain, are shown with a selection of clear calls. Calls follow the shape of the dose curve; as a rule, active = well fitted activation curve with a large enough effect; inconclusive = small, poorly fitted or top-dose-only effect; inactive = no such curve, though single readings can be large or run the other way. Potencies of inconclusive entries are doubtful fits and often do not repeat.

assay: A quantitative high throughput screen for small molecules that induce DNA re-replication in SW480 colon adenocarcinoma cells.; also: nearly all actives have a fitted effect of over 55% in size; as to re-replication activation: % of control where 0% means no effect; details: Hoechst DNA content imaging, 48 h; re-replication activation: at 46.1 µM (top of the series) unless noted
How it was run: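 Per well, 250 cells were exposed to pinned compound for 48 hr. Nuclear DNA was visualised with Hoechst (40 min, 37 C) and total object intensity recorded by fluorescence scanning.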
Potency is read from the fitted curve at half-maximal effect.

SMILES	Potency	re-replication activation
CC(=O)/C(CN1CCCCC1)=N\O	inconclusive: 18.4 µM [activator, single point]	–
Cc1cccc(NS(=O)(=O)c2csc(C(N)=O)c2)c1	inconclusive: 1.3 µM [activator, full curve, poor fit]	–
COc1ccc(-c2cc(C(=O)N/N=C/c3cccnc3)c3cc(C)cc(C)c3n2)cc1	inconclusive: 20.6 µM [activator, single point]	–
O=C(CNS(=O)(=O)c1ccc(Cl)c(C(F)(F)F)c1)NC1CCCCCC1	–	inactive: 5.47%
O=C(Nc1ccc(Cl)cn1)c1cccc2ccccc12	inconclusive: 16.4 µM [activator, single point]	–
COc1ccc(-c2nc(N3CCC(C)CC3)[nH]c(=O)c2C#N)cc1	inconclusive: 5.8 µM [activator, full curve, poor fit]	–
COC(=O)/C=C1\S/C(=N/NC(=O)c2ccccc2)NC1=O	–	inactive: -8.09%
CCCN(C(=O)CSCc1ccc(Cl)cc1)c1c(N)n(Cc2ccccc2)c(=O)[nH]c1=O	–	inactive: 7.43%
CC1(CNC(=O)C(=O)NCC2(C)CO2)CO1 (stereo not given)	inconclusive: 18.4 µM [activator, single point]	–
CC(C)=NOc1cc(NC(=O)CCl)cc([N+](=O)[O-])c1	active: 9.2 µM	–
CCN(CC)C(=O)[C@H]1CC(CC(=O)NCCC2=CCCCC2)C(=O)N2CCc3c([nH]c4ccccc34)[C@]12C (stereo not given in full)	inconclusive: 18.4 µM [activator, single point]	–
O=S(=O)(CCSc1nc2ccccc2o1)c1nc2ccccc2s1	active: 4.61 µM	–
CCOc1ccc(OCCC(=O)OCC(=O)N2CCN(S(=O)(=O)c3ccc(Cl)cc3)CC2)cc1	inconclusive: 25.9 µM [activator, single point]	–
COc1ccc(-c2csc(-n3cccn3)n2)cc1	–	inactive: -4.05%
Cc1ccc(-c2nc3c4ccccc4ccn3c2CN2CCCCC2)cc1	–	inactive: 4.66%
CN(CC(=O)Nc1ccc(F)cc1)C(=O)COC(=O)c1ccc(=O)n(Cc2ccccc2)n1	–	inactive: -26.3%
CNC(=O)NC(=O)CN1C(=O)NC2(CCOc3ccccc32)C1=O (stereo not given)	–	inactive: 0.227%
CCCN(CCC)CCCNC(=O)c1cc2c(=O)[nH]c3ccccc3c2s1	inconclusive: 23.1 µM [activator, single point]	–
Cc1cccc(NC(=O)CN2C(=O)S/C(=C\c3cccn3-c3cccc(C(=O)O)c3)C2=O)c1	–	inactive: 6.36%
CC1CCC(N2CC(=O)N(Cc3ccc4c(c3)OCO4)C(c3ccc(F)cc3)C2=O)CC1 (stereo not given)	inconclusive: 23.1 µM [activator, single point]	–
CCCCOc1cccc(C(=O)NC(=S)Nc2cccc(C(F)(F)F)c2)c1	inconclusive: 29.1 µM [activator, single point]	–
COc1ccc(/C=C/C(=O)NCc2c(C)nn(C)c2C)cc1COc1ccc(Br)cc1	inconclusive: 23.1 µM [activator, partial curve, poor fit]	–
COc1ccc(CCN2CC(C(=O)NCc3nc(C)c(C)s3)CCC2=O)cc1 (stereo not given)	–	inactive: -9.52%
O=C(CSc1ccc2c(c1)OCCO2)NCc1ccccc1	inconclusive: 0.103 µM [activator, full curve, poor fit]	–

Arranged by molar mass (low to high): part of the list above.
SMILES	Potency	re-replication activation
CC(=O)/C(CN1CCCCC1)=N\O	inconclusive: 18.4 µM [activator, single point]	–
CC1(CNC(=O)C(=O)NCC2(C)CO2)CO1 (stereo not given)	inconclusive: 18.4 µM [activator, single point]	–
Cc1cccc(NS(=O)(=O)c2csc(C(N)=O)c2)c1	inconclusive: 1.3 µM [activator, full curve, poor fit]	–
COC(=O)/C=C1\S/C(=N/NC(=O)c2ccccc2)NC1=O	–	inactive: -8.09%
CCN(CC)C(=O)[C@H]1CC(CC(=O)NCCC2=CCCCC2)C(=O)N2CCc3c([nH]c4ccccc34)[C@]12C (stereo not given in full)	inconclusive: 18.4 µM [activator, single point]	–

(cont.)

SMILES	Potency	re-replication activation
CCn1c(SCC(=O)N2c3ccccc3Sc3ccccc32)nc2c1c(=O)n(C)c(=O)n2C	inconclusive: 29.1 µM [activator, single point]	–
CCOc1ncnc2c1sc1nc3c(cc12)COC(C)(C)C3	–	inactive: -7.76%
O=C(O)c1oc2ccccc2c1-n1cccc1	–	inactive: -10.1%
O=C(CN1C(=O)/C(=C\c2cccc(Cl)c2)Sc2ccccc21)NCCCN1CCOCC1	inconclusive: 23.1 µM [activator, single point]	–
c1ccc(Cc2nnc(Sc3ccccc3)c3ccccc23)cc1	active: 14.6 µM	–
CC(=O)c1cccc(S(=O)(=O)N(CCCO)Cc2cc3ccc(C)cc3[nH]c2=O)c1	–	inactive: -21.3%
Cc1cccc(N2CCN(C(=O)c3cccc(N4CCCC4=O)c3)CC2)c1C	inconclusive: 29.1 µM [activator, single point]	–
Cc1ccc(C)c(S(=O)(=O)N2CCN(c3ncnc4sccc34)CC2)c1	inconclusive: 28.2 µM [activator, single point]	–
CC1CC(NC(=O)Cc2ccc(Br)cc2)CC(C)(C)C1 (stereo not given)	inconclusive: 23.1 µM [activator, single point]	–
C[C@]12CC[C@@H]3c4ccc(OC(=O)c5ccccc5)cc4CC[C@H]3[C@@H]1CC[C@@H]2O	inactive	–
O=C(CSc1nc2ccccc2c(=O)[nH]1)c1ccc(O)cc1O	–	inactive: 16.7%
Cc1csc2c(=O)[nH]cnc12	–	inactive: -0.861%
CC(C)CCOC(=O)/C(=C/c1ccco1)NC(=O)/C=C/c1ccccc1	–	inactive: -9.54%
COc1ccc(C(OCC(O)CNC(C)c2ccccc2)c2ccc(OC)cc2)cc1 (stereo not given)	inconclusive: 29.1 µM [activator, single point]	–
O=C1c2cccc3c([N+](=O)[O-])ccc(c23)C(=O)N1Cc1cccnc1	inconclusive: 16.4 µM [activator, single point]	–
Cc1cc(C)cc(NC(=O)Nc2cnccn2)c1	inconclusive: 0.58 µM [activator, full curve]	–
CCOCC(=O)Nc1cc([N+](=O)[O-])ccc1OC	inconclusive: 29.1 µM [activator, single point]	–
CC(=O)N(Cc1ccc(F)cc1)C1=C(NCc2ccccc2)C(=O)c2ccccc2C1=O	inconclusive: 3.55 µM [activator, full curve]	–
CC(C)c1ccc(N(C)C(=O)Cc2c(C(=O)O)n(C)c3ccccc23)cc1	–	inconclusive: -21.4% [activator]
CCOC(=O)C1=CN(Cc2cccc(F)c2)S(=O)(=O)N(CC)C1c1ccc(F)c(Cl)c1 (stereo not given)	–	inactive: 12.6% [at 9.22 µM]
CCCN1CCc2c(sc3nc(SCC)n(-c4ccc(OC)cc4)c(=O)c23)C1	–	inactive: 12.4%
O=C(NCCc1ccc(Cl)cc1Cl)c1ccc2nc[nH]c2c1	inconclusive: 29.1 µM [activator, single point]	–
O=C(NNC1=C(C(=O)C(F)(F)F)CCC1)c1ccccc1Cl	inconclusive: 18.4 µM [activator, single point]	–
Cc1cc(C(=O)N/N=C/c2ccc([N+](=O)[O-])s2)n[nH]1	inconclusive: 23.1 µM [activator, single point]	–

SMILES	Potency	re-replication activation
CC(=O)c1ccc(OCCCOc2cccc3cccnc23)cc1	inconclusive: 29.1 µM [activator, single point]	–
COC1(OC)C(/C=C/c2ccc(Cl)cc2)C(C#N)(C#N)C1(OC)OC (stereo not given)	inconclusive: 25.9 µM [activator, single point]	–
S=C(NCc1ccc2[nH]c3c(c2c1)CCCC3)Nc1ccccc1	inconclusive: 23.1 µM [activator, single point]	–
Cc1cccc(-n2c(SCc3cc(=O)n4ccsc4n3)nc3ccccc32)c1	inconclusive: 11.6 µM [activator, partial curve, poor fit]	–
CC(C)=CCN1CCN(Cc2nc(-c3ccccc3)cs2)CC1CCO (stereo not given)	inconclusive: 7.31 µM [activator, partial curve, poor fit]	–
Cc1ccc([N+](=O)[O-])cc1NC(=O)CCc1ccccc1	–	inactive: 2.55%
O=C(Cc1cccc2ccccc12)NCC(=O)N1CCN(Cc2cccc(C(F)(F)F)c2)CC1	–	inactive: -10.3%
Cc1nc(SC(C)C(=O)c2c(N)n(C)c(=O)n(C)c2=O)c2c(C)c(C)sc2n1 (stereo not given)	–	inactive: -1.72%
Cc1ccc(-c2ccc(C(=O)Nc3cccc(F)c3)o2)c2ccccc12	inconclusive: 16.4 µM [activator, single point]	–
Cc1ccccc1N1CCN(S(=O)(=O)Cc2ccccc2)CC1	inconclusive: 0.116 µM [activator, full curve, poor fit]	–
CCN(c1ccc(OC)cc1)S(=O)(=O)c1ccc(-c2ccc(=O)[nH]n2)o1	inconclusive: 0.184 µM [activator, full curve, poor fit]	–
COc1cccc(/C=C/c2ccc3cccc(O)c3n2)c1	inconclusive: 29.1 µM [activator, single point]	–
CC(NC(=O)CN1CCN(S(=O)(=O)c2ccc(Br)cc2)CC1)c1ccccc1 (stereo not given)	inconclusive: 9.2 µM [activator, single point]	–
Cc1cc(C)nc(SCc2cn3c(C)cc(C)nc3n2)n1	inconclusive: 2.31 µM [activator, full curve, poor fit]	–
Cc1cccc(N2CCN(C(=O)c3cccc(S(=O)(=O)N4CCOCC4)c3)CC2)c1C	inconclusive: 29.1 µM [activator, single point]	–
O=C(C=Cc1ccccn1)c1ccccc1O	inconclusive: 23.1 µM [activator, single point]	–
Cc1ccc2c(c1)N(C(=O)CCC(=O)Nc1ccccc1Cl)CC(C)O2 (stereo not given)	–	inactive: -7.24%
c1ccc(CNCCC(Cc2ccccc2)c2ccco2)cc1 (stereo not given)	inconclusive: 16.4 µM [activator, partial curve, poor fit]	–
C=CC[C@@H](CC(=O)N[C@H](CO)Cc1ccccc1)C(=O)N[C@H](C)COC(=O)[C@@H](CC=C)Cc1ccc(F)cc1	inconclusive: 6.51 µM [activator, single point]	–
Nc1nonc1-n1nnc(C(=O)N/N=C/c2cccs2)c1CSc1ccccc1	inconclusive: 23.1 µM [activator, single point]	–
Cc1c(NC(=O)CN2C(=O)NC(CCc3ccccc3)C2=O)c(=O)n(-c2ccccc2)n1C (stereo not given)	–	inactive: -3.04%
Cc1ccc(-c2[nH]ncc2/C=N/n2c(COc3ccccc3)nc3ccccc3c2=O)cc1	inconclusive: 23.1 µM [activator, single point]	–
